# Test results: the supplement of paper PMC8728848
# The list shows a part of the results.
# What was measured:
# Assay in all cases: glycan array binding signal (z-score within array); higher = stronger binding
# Conditions in all cases: glycan notation: IUPAC condensed, linker removed
# [1] = biological target: Gal(a1-3)Gal(b1-4)GlcNAc
# Summary of the method: (§1)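 Glycan array data came from 3228 arrays in the Consortium for Functional Glycomics database, and only arrays with an available protein sequence were kept. Glycan names were put into IUPAC-condensed notation, and columns mapping to the same glycan were averaged. The binding signal is a within-array Z-score, averaged across arrays of one protein sequence run at different concentrations or buffers and across linkers. A negative Z-score can be read as non-binding.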
# [2] = biological target: Gal(a1-3)Gal(b1-4)GlcNAc(b1-3)GalNAc
# Summary of the method: as §1
# [3] = biological target: Gal(a1-3)Gal(b1-4)[Fuc(a1-3)]GlcNAc
# Summary of the method: as §1
# [4] = biological target: Gal(a1-3)Gal(b1-4)[Fuc(a1-3)]GlcNAc(b1-2)Man(a1-3)[Gal(a1-3)Gal(b1-4)[Fuc(a1-3)]GlcNAc(b1-2)Man(a1-6)]Man(b1-4)GlcNAc(b1-4)GlcNAc
# Summary of the method: as §1
# [5] = biological target: Gal(a1-3)GalNAc
# Summary of the method: as §1
# [6] = biological target: Gal(a1-3)[Gal(a1-4)]Gal(b1-4)GlcNAc
# Summary of the method: as §1
# [7] = biological target: Gal(a1-4)Gal(b1-3)GlcNAc(b1-2)Man(a1-3)[Gal(a1-4)Gal(b1-3)GlcNAc(b1-2)Man(a1-6)]Man(b1-4)GlcNAc(b1-4)GlcNAc
# Summary of the method: as §1
# [8] = biological target: Gal(a1-4)Gal(b1-4)Glc
# Summary of the method: as §1
# [9] = biological target: Gal(a1-4)Gal(b1-4)GlcNAc
# Summary of the method: as §1
# [10] = biological target: Gal(a1-4)Gal(b1-4)GlcNAc(b1-2)Man(a1-3)[Gal(a1-4)Gal(b1-4)GlcNAc(b1-2)Man(a1-6)]Man(b1-4)GlcNAc(b1-4)GlcNAc
# Summary of the method: as §1
# [11] = biological target: Gal(a1-4)Gal(b1-4)GlcNAc(b1-3)Gal(b1-4)Glc
# Summary of the method: as §1
# [12] = biological target: Gal(a1-4)GlcNAc
# Summary of the method: as §1
# [13] = biological target: Gal(a1-6)Glc
# Summary of the method: as §1
# [14] = biological target: Gal(b1-2)Gal
# Summary of the method: as §1
# [15] = biological target: Gal(b1-3)Gal
# Summary of the method: as §1
# [16] = biological target: Gal(b1-3)Gal(b1-4)GlcNAc
# Summary of the method: as §1
# [17] = biological target: Gal(b1-3)Gal(b1-4)GlcNAc(b1-2)Man(a1-3)[Gal(b1-3)Gal(b1-4)GlcNAc(b1-2)Man(a1-6)]Man(b1-4)GlcNAc(b1-4)GlcNAc
# Summary of the method: as §1
# [18] = biological target: Gal(b1-3)GalNAc
# Summary of the method: as §1
# [19] = biological target: Gal(b1-3)GalNAc(a1-3)[Fuc(a1-2)]Gal(b1-4)Glc
# Summary of the method: as §1
# [20] = biological target: Gal(b1-3)GalNAc(a1-3)[Fuc(a1-2)]Gal(b1-4)GlcNAc
# Summary of the method: as §1
# [21] = biological target: Gal(b1-3)GalNAc(b1-3)Gal(a1-4)Gal(b1-4)Glc
# Summary of the method: as §1
# [22] = biological target: Gal(b1-3)GalNAc(b1-4)Gal(b1-4)Glc
# Summary of the method: as §1
# [23] = biological target: Gal(b1-3)GalNAc(b1-4)[Neu5Ac(a2-3)]Gal(b1-4)Glc
# Summary of the method: as §1
# [24] = biological target: Gal(b1-3)GlcNAc
# Summary of the method: as §1
# [25] = biological target: Gal(b1-3)GlcNAc(a1-6)Gal(b1-4)GlcNAc
# Summary of the method: as §1
# [26] = biological target: Gal(b1-3)GlcNAc(b1-2)Man(a1-3)[Gal(b1-3)GlcNAc(b1-2)Man(a1-6)]Man(b1-4)GlcNAc(b1-4)GlcNAc
# Summary of the method: as §1
# [27] = biological target: Gal(b1-3)GlcNAc(b1-2)Man(a1-3)[Gal(b1-3)GlcNAc(b1-2)Man(a1-6)]Man(b1-4)GlcNAc(b1-4)[Fuc(a1-6)]GlcNAc
# Summary of the method: as §1
# [28] = biological target: Gal(b1-3)GlcNAc(b1-3)Gal(b1-3)GlcNAc
# Summary of the method: as §1
# [29] = biological target: Gal(b1-3)GlcNAc(b1-3)Gal(b1-4)Glc
# Summary of the method: as §1
# [30] = biological target: Gal(b1-3)GlcNAc(b1-3)Gal(b1-4)GlcNAc
# Summary of the method: as §1
# [31] = biological target: Gal(b1-3)GlcNAc(b1-3)Gal(b1-4)GlcNAc(b1-6)[Gal(b1-3)GlcNAc(b1-3)]Gal(b1-4)Glc
# Summary of the method: as §1
# [32] = biological target: Gal(b1-3)GlcNAc(b1-3)Gal(b1-4)[Fuc(a1-3)]GlcNAc(b1-6)[Gal(b1-3)GlcNAc(b1-3)]Gal(b1-4)Glc
# Summary of the method: as §1
# [33] = biological target: Gal(b1-3)GlcNAc(b1-3)GalNAc
# Summary of the method: as §1
# [34] = biological target: Gal(b1-3)GlcNAc(b1-6)Gal(b1-4)GlcNAc
# Summary of the method: as §1
# [35] = biological target: Gal(b1-3)[Fuc(a1-4)]GlcNAc
# Summary of the method: as §1
# [36] = biological target: Gal(b1-3)[Fuc(a1-4)]GlcNAc(b1-2)Man(a1-3)[Gal(b1-3)[Fuc(a1-4)]GlcNAc(b1-2)Man(a1-6)]Man(b1-4)GlcNAc(b1-4)GlcNAc
# Summary of the method: as §1
# [37] = biological target: Gal(b1-3)[Fuc(a1-4)]GlcNAc(b1-2)Man(a1-3)[Gal(b1-3)[Fuc(a1-4)]GlcNAc(b1-2)Man(a1-6)]Man(b1-4)GlcNAc(b1-4)[Fuc(a1-6)]GlcNAc
# Summary of the method: as §1
# [38] = biological target: Gal(b1-3)[Fuc(a1-4)]GlcNAc(b1-3)Gal(b1-3)[Fuc(a1-4)]GlcNAc
# Summary of the method: as §1
# [39] = biological target: Gal(b1-3)[Fuc(a1-4)]GlcNAc(b1-3)Gal(b1-4)GlcNAc
# Summary of the method: as §1
# [40] = biological target: Gal(b1-3)[Fuc(a1-4)]GlcNAc(b1-3)Gal(b1-4)[Fuc(a1-3)]GlcNAc
# Summary of the method: as §1
# [41] = biological target: Gal(b1-3)[GlcNAc(b1-6)]GalNAc
# Summary of the method: as §1
# [42] = biological target: Gal(b1-3)[Neu5Ac(a2-6)]GalNAc
# Summary of the method: as §1
# [43] = biological target: Gal(b1-3)[Neu5Ac(a2-6)]GlcNAc(b1-6)Gal(b1-4)Glc
# Summary of the method: as §1
# [44] = biological target: Gal(b1-3)[Neu5Ac(b2-6)]GalNAc
# Summary of the method: as §1
# [45] = biological target: Gal(b1-4)GalNAc(a1-3)[Fuc(a1-2)]Gal(b1-4)GlcNAc
# Summary of the method: as §1
binder,measurement,setting,value
"SBD (Rhizopus oryzae), P07683 (protein) ASIPSSASVQLDSYNYDGSTFSGKIYVKNIAYSKKVTVVYADGSDNWNNNGNIIAASFSGPISGSNYEYWTFSASVKGIKEFYIKYEVSGKTYYDNNNSANYQVS",glycan array binding signal (z-score),[1],-0.133
same,glycan array binding signal (z-score),[2],-0.461
same,glycan array binding signal (z-score),[3],-0.057
same,glycan array binding signal (z-score),[4],0.477
same,glycan array binding signal (z-score),[5],-0.084
same,glycan array binding signal (z-score),[6],-0.422
same,glycan array binding signal (z-score),[7],1.95
same,glycan array binding signal (z-score),[8],-0.555
same,glycan array binding signal (z-score),[9],-0.215
same,glycan array binding signal (z-score),[10],2.59
same,glycan array binding signal (z-score),[11],0.2
same,glycan array binding signal (z-score),[12],-0.786
same,glycan array binding signal (z-score),[13],-0.205
same,glycan array binding signal (z-score),[14],-0.342
same,glycan array binding signal (z-score),[15],-0.182
same,glycan array binding signal (z-score),[16],-0.379
same,glycan array binding signal (z-score),[17],-0.074
same,glycan array binding signal (z-score),[18],-0.406
same,glycan array binding signal (z-score),[19],-0.303
same,glycan array binding signal (z-score),[20],0.031
same,glycan array binding signal (z-score),[21],0.074
same,glycan array binding signal (z-score),[22],0.23
same,glycan array binding signal (z-score),[23],0.048
same,glycan array binding signal (z-score),[24],0.042
same,glycan array binding signal (z-score),[25],0.838
same,glycan array binding signal (z-score),[26],0.227
same,glycan array binding signal (z-score),[27],0.027
same,glycan array binding signal (z-score),[28],-0.135
same,glycan array binding signal (z-score),[29],2.02
same,glycan array binding signal (z-score),[30],-0.041
same,glycan array binding signal (z-score),[31],-0.398
same,glycan array binding signal (z-score),[32],0.647
same,glycan array binding signal (z-score),[33],-0.953
same,glycan array binding signal (z-score),[34],0.287
same,glycan array binding signal (z-score),[35],-0.029
same,glycan array binding signal (z-score),[36],1.14
same,glycan array binding signal (z-score),[37],0.316
same,glycan array binding signal (z-score),[38],-0.484
same,glycan array binding signal (z-score),[39],0.328
same,glycan array binding signal (z-score),[40],0.121
same,glycan array binding signal (z-score),[41],-0.253
same,glycan array binding signal (z-score),[42],-0.432
same,glycan array binding signal (z-score),[43],1.24
same,glycan array binding signal (z-score),[44],-0.657
same,glycan array binding signal (z-score),[45],0.553

# An excerpt of these results, as tab-separated lines.
binder	measurement	setting	value
SBD (Rhizopus oryzae), P07683 (protein) ASIPSSASVQLDSYNYDGSTFSGKIYVKNIAYSKKVTVVYADGSDNWNNNGNIIAASFSGPISGSNYEYWTFSASVKGIKEFYIKYEVSGKTYYDNNNSANYQVS	glycan array binding signal (z-score)	[2]	-0.461
same	glycan array binding signal (z-score)	[11]	0.2
same	glycan array binding signal (z-score)	[13]	-0.205
same	glycan array binding signal (z-score)	[18]	-0.406
same	glycan array binding signal (z-score)	[26]	0.227
same	glycan array binding signal (z-score)	[30]	-0.041
same	glycan array binding signal (z-score)	[31]	-0.398
same	glycan array binding signal (z-score)	[32]	0.647
